doi:10.1101/2020.01.24.919092

Chains of the proteins cited; added tags and fusions are not shown. Residues count along the entry.
UniProt Q00610, 1-1074: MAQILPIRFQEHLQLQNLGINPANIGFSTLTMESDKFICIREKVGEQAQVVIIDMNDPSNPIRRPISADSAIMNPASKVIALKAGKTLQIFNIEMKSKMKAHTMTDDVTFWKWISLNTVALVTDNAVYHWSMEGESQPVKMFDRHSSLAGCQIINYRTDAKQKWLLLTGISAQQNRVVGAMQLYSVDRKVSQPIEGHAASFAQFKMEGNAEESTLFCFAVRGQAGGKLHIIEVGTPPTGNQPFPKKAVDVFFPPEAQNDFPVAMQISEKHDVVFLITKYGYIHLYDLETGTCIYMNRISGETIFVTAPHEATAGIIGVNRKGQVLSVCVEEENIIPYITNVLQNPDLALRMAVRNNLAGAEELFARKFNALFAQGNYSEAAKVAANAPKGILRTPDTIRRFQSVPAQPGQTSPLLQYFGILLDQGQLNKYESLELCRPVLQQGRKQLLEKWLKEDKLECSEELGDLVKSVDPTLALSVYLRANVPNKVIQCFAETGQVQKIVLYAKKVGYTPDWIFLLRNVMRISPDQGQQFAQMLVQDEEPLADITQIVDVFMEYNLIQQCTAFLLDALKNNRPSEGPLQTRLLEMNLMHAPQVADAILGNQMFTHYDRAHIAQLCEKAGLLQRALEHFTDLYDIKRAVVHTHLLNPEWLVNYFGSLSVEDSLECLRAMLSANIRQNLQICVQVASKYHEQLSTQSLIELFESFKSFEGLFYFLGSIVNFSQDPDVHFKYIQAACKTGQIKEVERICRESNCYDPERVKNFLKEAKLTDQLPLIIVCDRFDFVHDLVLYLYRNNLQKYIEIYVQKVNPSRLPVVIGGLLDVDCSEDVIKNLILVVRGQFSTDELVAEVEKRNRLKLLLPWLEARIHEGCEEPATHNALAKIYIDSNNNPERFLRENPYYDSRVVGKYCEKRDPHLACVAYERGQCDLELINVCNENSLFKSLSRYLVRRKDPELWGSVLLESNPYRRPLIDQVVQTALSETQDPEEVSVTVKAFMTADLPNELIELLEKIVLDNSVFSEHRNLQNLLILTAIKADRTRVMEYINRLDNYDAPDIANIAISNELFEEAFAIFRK

Biological target: HA-tagged TDD (N-terminal domain + distal leg of clathrin heavy chain, residues 1-1074) (UniProt Q00610)
Experiment: affinity purification with mass spectrometry

SNX9 (endogenous, ARPE cells) (from UniProt Q9Y5X1 1-595)
binding: binds

Results are given in words; binding and its absence hold for the method and conditions named. In cells and extracts the contact can be indirect. These calls come from enrichment with a bait or labelling near it, and not all partners need be listed.
